Results are given in words; binding and its absence hold for the method and conditions named. For part of these data: Binding seen in cells or lysates may run through a third protein. Some binding calls cover weakened binding; strength is not graded here. For part of these data: Tags and fused reporters may be left off the sequences shown.

This note sets out measurements from PMC12806521.

In experiment [1] the target is T1, FXYD3 (endogenous, HUCCT1 cells) (human (endogenous in HUCCT1)) (UniProt Q14802).
T1 sequence: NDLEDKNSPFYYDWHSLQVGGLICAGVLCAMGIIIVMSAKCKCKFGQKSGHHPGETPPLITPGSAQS
Briefly: co-IP; endogenous proteins, HUCCT1 cells; lysates incubated with anti-FXYD3 or anti-IRF7 antibodies and protein G magnetic beads, immunoblot; also in IFN-treated cells (IFN-1 stimulation augmented the interaction) and after anifrolumab (suppressed the interaction). In general terms: Immunoblotting shows a protein as a band on a membrane.

Experiment [2] deals with T1, FXYD3 (endogenous, HUCCT1 cells) (human (endogenous in HUCCT1)). Briefly: co-IP; cytoplasmic fraction of HUCCT1 cells; immunoprecipitation with antibodies against FXYD3, IRF7 or control rabbit IgG, immunoblot with anti-FXYD3 and anti-IRF7.
The target of another experiment is T2, Flag-FXYD3 (UniProt Q14802).
T2 sequence: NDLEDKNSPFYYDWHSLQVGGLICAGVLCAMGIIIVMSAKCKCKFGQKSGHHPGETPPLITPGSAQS
The experiment can be described thus: co-IP; epitope-tagged plasmids in HEK293T cells; lysis buffer 5% glycerol, 1% Nonidet P-40, 1 mM EDTA, 100 mM NaCl, 20 mM Tris-HCl pH 8.0; overnight at 4 °C with anti-FLAG M2 beads or anti-HA beads; immunoblot with anti-HA or anti-Flag.

Experiment [3] addresses T3, HA-tagged FXYD3 (full length) (UniProt Q14802).
T3 sequence: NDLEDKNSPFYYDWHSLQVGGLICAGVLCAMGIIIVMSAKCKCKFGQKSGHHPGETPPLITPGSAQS
Described as above.

The target in experiment [4] is T4, GST-IRF7 (UniProt Q92985).
T4 sequence: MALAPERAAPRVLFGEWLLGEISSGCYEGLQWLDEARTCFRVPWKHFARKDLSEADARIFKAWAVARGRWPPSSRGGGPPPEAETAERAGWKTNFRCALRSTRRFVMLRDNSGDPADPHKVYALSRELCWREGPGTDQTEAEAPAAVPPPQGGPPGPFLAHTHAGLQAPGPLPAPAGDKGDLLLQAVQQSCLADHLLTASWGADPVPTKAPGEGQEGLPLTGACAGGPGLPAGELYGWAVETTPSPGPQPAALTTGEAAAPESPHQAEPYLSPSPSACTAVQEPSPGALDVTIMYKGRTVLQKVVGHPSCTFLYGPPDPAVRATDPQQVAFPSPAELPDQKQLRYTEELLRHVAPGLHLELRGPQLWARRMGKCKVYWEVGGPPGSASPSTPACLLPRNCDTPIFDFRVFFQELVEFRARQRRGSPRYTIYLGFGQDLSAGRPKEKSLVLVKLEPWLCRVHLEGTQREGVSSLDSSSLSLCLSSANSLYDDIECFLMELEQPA
The experiment can be described thus: pull-down; recombinant purified GST-IRF7 with total proteins from HUCCT1 cells; only the target purified.

Experiment [5] deals with T4, GST-IRF7. The experiment can be described thus: pull-down; about 10 µg GST-IRF7 on glutathione-Sepharose beads, equimolar (or 10-15 µg) purified His-tagged FXYD3; 50 mM Tris-HCl pH 7.5, 150 mM NaCl, 1 mM EDTA, 1% Triton X-100, 1 mM DTT; 4 °C, 2-3 h; western blot with anti-FXYD3 and anti-GST; both purified.

B1: IRF7 (endogenous, HUCCT1 cells) (protein, UniProt Q92985 1-503)
chain: MALAPERAAPRVLFGEWLLGEISSGCYEGLQWLDEARTCFRVPWKHFARKDLSEADARIFKAWAVARGRWPPSSRGGGPPPEAETAERAGWKTNFRCALRSTRRFVMLRDNSGDPADPHKVYALSRELCWREGPGTDQTEAEAPAAVPPPQGGPPGPFLAHTHAGLQAPGPLPAPAGDKGDLLLQAVQQSCLADHLLTASWGADPVPTKAPGEGQEGLPLTGACAGGPGLPAGELYGWAVETTPSPGPQPAALTTGEAAAPESPHQAEPYLSPSPSACTAVQEPSPGALDVTIMYKGRTVLQKVVGHPSCTFLYGPPDPAVRATDPQQVAFPSPAELPDQKQLRYTEELLRHVAPGLHLELRGPQLWARRMGKCKVYWEVGGPPGSASPSTPACLLPRNCDTPIFDFRVFFQELVEFRARQRRGSPRYTIYLGFGQDLSAGRPKEKSLVLVKLEPWLCRVHLEGTQREGVSSLDSSSLSLCLSSANSLYDDIECFLMELEQPA
In the case of B1, the binding result in experiment [1] and in experiment [2] was “binds” each time.

B2: HA-IRF7 (protein, UniProt Q92985 1-503)
chain: MALAPERAAPRVLFGEWLLGEISSGCYEGLQWLDEARTCFRVPWKHFARKDLSEADARIFKAWAVARGRWPPSSRGGGPPPEAETAERAGWKTNFRCALRSTRRFVMLRDNSGDPADPHKVYALSRELCWREGPGTDQTEAEAPAAVPPPQGGPPGPFLAHTHAGLQAPGPLPAPAGDKGDLLLQAVQQSCLADHLLTASWGADPVPTKAPGEGQEGLPLTGACAGGPGLPAGELYGWAVETTPSPGPQPAALTTGEAAAPESPHQAEPYLSPSPSACTAVQEPSPGALDVTIMYKGRTVLQKVVGHPSCTFLYGPPDPAVRATDPQQVAFPSPAELPDQKQLRYTEELLRHVAPGLHLELRGPQLWARRMGKCKVYWEVGGPPGSASPSTPACLLPRNCDTPIFDFRVFFQELVEFRARQRRGSPRYTIYLGFGQDLSAGRPKEKSLVLVKLEPWLCRVHLEGTQREGVSSLDSSSLSLCLSSANSLYDDIECFLMELEQPA
Consider B2, for which the binding result in the experiment with Flag-FXYD3 is reported as “binds”.

B3: FLAG-tagged IRF7 (protein, UniProt Q92985 1-503)
chain: MALAPERAAPRVLFGEWLLGEISSGCYEGLQWLDEARTCFRVPWKHFARKDLSEADARIFKAWAVARGRWPPSSRGGGPPPEAETAERAGWKTNFRCALRSTRRFVMLRDNSGDPADPHKVYALSRELCWREGPGTDQTEAEAPAAVPPPQGGPPGPFLAHTHAGLQAPGPLPAPAGDKGDLLLQAVQQSCLADHLLTASWGADPVPTKAPGEGQEGLPLTGACAGGPGLPAGELYGWAVETTPSPGPQPAALTTGEAAAPESPHQAEPYLSPSPSACTAVQEPSPGALDVTIMYKGRTVLQKVVGHPSCTFLYGPPDPAVRATDPQQVAFPSPAELPDQKQLRYTEELLRHVAPGLHLELRGPQLWARRMGKCKVYWEVGGPPGSASPSTPACLLPRNCDTPIFDFRVFFQELVEFRARQRRGSPRYTIYLGFGQDLSAGRPKEKSLVLVKLEPWLCRVHLEGTQREGVSSLDSSSLSLCLSSANSLYDDIECFLMELEQPA
Regarding B3, the binding entry in experiment [3] is on record as “binds”.

B4: FXYD3 (endogenous, HUCCT1 cells) (protein, UniProt Q14802 21-87)
chain: NDLEDKNSPFYYDWHSLQVGGLICAGVLCAMGIIIVMSAKCKCKFGQKSGHHPGETPPLITPGSAQS
For B4, the binding result in the experiment with GST-IRF7 [4] was “binds”.

B5: His-tagged FXYD3 (protein, UniProt Q14802 21-87)
chain: NDLEDKNSPFYYDWHSLQVGGLICAGVLCAMGIIIVMSAKCKCKFGQKSGHHPGETPPLITPGSAQS
In the case of B5, the binding entry with GST-IRF7 [5] is on record as “binds”.
